± gives the standard deviation of the averaged measurements. The list shows a part of the results.

Protein sequences, listed by entry. Tags and fused reporters are not part of them. Lines headed by an entry give the natural chain unless they say otherwise; changes in a name come on top.
UniProt Q9GZT9: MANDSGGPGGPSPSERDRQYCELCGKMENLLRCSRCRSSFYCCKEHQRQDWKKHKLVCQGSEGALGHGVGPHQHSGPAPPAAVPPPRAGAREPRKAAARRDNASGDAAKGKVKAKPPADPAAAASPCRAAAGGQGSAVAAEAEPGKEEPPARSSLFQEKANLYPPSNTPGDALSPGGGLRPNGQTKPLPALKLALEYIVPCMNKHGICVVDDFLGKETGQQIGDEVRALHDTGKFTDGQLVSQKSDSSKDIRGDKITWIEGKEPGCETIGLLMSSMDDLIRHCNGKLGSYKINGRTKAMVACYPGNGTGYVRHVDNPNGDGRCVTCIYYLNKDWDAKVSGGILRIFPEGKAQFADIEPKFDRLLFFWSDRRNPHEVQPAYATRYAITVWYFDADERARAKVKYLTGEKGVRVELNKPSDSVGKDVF
UniProt Q9H974: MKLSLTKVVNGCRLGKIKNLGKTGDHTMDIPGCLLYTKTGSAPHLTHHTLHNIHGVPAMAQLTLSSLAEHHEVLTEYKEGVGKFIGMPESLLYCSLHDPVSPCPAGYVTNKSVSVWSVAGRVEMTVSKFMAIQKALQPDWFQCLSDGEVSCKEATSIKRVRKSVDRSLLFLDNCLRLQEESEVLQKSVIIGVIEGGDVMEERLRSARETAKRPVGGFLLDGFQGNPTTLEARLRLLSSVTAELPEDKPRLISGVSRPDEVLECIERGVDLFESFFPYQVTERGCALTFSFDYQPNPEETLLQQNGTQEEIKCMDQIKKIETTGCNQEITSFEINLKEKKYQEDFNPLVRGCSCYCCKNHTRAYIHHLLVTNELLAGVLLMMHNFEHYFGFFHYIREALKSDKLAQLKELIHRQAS
UniProt Q9NRR5, whole entry: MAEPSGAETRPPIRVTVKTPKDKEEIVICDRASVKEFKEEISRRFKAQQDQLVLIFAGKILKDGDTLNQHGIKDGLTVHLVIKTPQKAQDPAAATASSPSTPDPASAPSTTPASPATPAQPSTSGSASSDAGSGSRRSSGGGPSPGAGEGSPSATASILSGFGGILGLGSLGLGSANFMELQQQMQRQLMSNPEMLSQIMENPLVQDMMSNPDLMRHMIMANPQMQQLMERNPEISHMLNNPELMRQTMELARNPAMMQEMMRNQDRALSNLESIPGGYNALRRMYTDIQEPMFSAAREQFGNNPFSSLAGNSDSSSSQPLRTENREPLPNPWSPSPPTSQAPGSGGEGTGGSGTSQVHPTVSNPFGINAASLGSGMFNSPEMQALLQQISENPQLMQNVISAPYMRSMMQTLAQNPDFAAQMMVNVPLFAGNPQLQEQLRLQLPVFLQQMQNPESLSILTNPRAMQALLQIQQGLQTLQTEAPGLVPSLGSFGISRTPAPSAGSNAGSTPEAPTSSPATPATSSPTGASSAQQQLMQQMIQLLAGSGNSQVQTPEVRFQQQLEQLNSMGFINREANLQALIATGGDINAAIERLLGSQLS
UniProt Q9H4L5: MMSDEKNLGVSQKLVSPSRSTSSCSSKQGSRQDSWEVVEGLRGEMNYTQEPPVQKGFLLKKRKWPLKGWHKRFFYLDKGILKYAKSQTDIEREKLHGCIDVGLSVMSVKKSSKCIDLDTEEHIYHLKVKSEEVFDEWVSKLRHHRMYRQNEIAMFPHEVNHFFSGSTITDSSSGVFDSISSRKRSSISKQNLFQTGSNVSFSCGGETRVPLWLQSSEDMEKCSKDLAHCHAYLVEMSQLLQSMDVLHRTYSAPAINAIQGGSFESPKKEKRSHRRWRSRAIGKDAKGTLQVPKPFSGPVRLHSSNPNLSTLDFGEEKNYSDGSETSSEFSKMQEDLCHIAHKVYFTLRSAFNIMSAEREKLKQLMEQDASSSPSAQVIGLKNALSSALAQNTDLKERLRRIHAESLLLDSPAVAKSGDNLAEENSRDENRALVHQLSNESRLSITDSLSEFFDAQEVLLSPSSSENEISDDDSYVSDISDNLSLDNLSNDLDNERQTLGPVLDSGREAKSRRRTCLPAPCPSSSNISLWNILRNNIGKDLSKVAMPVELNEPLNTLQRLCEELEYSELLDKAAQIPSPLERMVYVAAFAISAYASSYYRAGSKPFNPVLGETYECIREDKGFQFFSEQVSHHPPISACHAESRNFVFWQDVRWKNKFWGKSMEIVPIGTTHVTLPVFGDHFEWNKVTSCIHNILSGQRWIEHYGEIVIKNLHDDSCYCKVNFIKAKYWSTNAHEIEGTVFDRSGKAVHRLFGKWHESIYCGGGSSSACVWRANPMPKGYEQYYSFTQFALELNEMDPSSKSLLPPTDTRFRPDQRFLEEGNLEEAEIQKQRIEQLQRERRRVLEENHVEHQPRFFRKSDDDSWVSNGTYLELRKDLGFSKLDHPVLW
UniProt Q9NNW7, whole entry: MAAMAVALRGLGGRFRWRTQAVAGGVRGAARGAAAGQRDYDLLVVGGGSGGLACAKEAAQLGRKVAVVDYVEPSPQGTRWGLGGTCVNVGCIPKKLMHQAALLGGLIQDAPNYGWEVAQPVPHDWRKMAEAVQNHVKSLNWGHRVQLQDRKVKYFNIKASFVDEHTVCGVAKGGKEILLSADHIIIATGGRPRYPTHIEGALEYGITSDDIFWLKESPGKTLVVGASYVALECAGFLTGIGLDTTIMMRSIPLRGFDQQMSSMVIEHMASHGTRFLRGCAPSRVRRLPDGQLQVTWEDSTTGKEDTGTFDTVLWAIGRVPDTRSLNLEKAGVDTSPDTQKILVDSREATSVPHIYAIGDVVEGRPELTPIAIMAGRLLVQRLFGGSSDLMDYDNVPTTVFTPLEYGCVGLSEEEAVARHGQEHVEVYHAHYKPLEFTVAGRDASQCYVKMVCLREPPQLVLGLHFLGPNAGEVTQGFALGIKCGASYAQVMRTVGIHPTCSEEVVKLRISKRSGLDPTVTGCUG
UniProt Q9H0W8: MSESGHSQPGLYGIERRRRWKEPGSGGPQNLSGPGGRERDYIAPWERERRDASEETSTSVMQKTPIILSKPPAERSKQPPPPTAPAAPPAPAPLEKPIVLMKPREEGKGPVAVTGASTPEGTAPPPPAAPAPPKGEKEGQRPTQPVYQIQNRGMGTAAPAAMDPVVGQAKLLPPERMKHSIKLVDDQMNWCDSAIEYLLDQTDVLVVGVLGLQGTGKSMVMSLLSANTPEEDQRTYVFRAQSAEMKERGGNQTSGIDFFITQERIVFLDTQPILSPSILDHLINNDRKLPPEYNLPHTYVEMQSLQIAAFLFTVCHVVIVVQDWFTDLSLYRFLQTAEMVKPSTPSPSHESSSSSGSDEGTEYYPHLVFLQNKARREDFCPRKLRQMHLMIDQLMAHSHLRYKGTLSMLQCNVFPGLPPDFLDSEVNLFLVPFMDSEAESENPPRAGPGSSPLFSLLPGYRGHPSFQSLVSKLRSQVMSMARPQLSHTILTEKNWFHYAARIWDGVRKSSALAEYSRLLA
UniProt Q9HB71, whole entry: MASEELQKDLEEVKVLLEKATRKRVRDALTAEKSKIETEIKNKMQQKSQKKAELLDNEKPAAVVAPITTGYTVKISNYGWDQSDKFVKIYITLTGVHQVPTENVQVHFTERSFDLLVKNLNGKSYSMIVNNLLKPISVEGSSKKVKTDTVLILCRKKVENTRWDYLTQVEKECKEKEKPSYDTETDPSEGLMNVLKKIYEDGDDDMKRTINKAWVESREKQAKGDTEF
UniProt Q9NSI2: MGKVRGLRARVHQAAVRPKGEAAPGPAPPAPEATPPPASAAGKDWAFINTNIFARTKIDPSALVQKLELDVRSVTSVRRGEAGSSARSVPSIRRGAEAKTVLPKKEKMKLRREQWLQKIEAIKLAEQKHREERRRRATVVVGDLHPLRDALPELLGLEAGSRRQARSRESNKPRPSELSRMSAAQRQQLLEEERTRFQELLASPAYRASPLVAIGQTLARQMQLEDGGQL
UniProt Q9H981, whole entry: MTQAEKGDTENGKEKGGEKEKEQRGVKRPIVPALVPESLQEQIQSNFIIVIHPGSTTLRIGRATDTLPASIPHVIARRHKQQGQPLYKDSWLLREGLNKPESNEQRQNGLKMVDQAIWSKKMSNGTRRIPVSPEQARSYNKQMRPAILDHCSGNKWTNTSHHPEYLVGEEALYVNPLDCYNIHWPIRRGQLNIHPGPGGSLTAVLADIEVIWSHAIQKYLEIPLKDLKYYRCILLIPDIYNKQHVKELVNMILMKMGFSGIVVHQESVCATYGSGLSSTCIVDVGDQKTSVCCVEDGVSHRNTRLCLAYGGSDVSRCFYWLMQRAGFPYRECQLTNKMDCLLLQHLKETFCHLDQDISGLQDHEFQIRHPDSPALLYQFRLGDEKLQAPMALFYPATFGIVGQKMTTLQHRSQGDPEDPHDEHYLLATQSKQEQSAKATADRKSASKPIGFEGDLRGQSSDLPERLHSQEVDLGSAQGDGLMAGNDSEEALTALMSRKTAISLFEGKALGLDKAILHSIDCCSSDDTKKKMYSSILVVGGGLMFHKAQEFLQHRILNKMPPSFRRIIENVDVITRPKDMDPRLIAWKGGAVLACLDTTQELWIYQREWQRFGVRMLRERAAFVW
UniProt Q9HAS0: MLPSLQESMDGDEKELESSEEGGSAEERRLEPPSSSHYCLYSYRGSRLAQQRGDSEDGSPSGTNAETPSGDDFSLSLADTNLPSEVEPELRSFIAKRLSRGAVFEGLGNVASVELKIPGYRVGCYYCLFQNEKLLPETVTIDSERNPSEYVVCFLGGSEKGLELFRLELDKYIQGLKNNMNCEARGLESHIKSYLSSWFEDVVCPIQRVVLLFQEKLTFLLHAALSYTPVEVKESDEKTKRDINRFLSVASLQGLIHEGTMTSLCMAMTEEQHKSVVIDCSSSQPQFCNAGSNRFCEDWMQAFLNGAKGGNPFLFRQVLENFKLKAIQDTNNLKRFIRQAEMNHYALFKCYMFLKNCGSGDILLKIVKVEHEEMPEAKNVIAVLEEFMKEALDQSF
UniProt Q9NTJ3, whole entry: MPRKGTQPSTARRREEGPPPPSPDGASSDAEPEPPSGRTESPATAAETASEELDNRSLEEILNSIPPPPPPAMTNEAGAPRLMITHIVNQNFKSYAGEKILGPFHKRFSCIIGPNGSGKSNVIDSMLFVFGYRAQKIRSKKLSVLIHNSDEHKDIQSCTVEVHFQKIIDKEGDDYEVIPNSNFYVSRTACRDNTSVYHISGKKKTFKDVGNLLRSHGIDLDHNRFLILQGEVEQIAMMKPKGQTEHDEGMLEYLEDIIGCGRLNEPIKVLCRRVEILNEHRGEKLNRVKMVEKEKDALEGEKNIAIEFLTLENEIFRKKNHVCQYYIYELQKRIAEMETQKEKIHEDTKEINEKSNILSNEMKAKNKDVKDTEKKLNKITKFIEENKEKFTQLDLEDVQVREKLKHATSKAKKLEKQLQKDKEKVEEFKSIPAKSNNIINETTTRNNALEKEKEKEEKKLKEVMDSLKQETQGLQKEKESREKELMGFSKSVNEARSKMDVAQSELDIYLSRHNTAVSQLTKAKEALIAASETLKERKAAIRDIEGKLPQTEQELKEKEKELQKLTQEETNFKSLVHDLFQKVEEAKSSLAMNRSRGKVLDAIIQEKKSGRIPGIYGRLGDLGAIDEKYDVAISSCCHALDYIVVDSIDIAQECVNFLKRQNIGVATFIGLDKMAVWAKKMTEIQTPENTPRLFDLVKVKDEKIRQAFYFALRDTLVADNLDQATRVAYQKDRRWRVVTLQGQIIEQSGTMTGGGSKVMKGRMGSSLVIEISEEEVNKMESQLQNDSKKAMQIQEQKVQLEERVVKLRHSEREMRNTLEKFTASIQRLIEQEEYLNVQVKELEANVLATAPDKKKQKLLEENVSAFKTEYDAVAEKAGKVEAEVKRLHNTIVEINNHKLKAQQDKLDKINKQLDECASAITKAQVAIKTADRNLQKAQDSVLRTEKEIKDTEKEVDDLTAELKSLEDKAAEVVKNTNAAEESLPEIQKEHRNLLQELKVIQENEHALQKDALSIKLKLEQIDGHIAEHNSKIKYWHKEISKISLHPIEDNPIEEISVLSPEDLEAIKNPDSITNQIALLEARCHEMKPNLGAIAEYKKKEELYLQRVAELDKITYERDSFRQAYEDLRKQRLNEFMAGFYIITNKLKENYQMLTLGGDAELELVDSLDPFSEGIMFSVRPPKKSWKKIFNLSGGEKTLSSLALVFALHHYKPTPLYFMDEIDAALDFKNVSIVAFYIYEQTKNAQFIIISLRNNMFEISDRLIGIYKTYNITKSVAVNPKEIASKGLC
UniProt Q9HAT8: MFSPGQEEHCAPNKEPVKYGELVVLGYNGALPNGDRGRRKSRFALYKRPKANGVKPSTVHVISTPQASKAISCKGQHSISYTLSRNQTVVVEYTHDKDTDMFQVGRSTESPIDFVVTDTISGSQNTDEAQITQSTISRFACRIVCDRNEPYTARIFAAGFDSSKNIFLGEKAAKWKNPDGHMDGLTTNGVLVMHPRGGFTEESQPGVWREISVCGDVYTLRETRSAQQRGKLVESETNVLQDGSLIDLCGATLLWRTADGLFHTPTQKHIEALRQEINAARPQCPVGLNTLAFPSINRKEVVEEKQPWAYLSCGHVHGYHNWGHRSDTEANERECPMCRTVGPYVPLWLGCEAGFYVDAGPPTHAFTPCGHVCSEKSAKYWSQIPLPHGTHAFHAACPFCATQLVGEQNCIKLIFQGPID

Compound in this assay: Nc1nc2c(ncn2[C@@H]2O[C@H](COP(=O)(O)OP(=O)(O)OP(=O)(O)O)[C@@H](O)[C@H]2O)c(=O)[nH]1 [guanosine triphosphate]
Nature of the assay: NP40-soluble protein abundance relative to vehicle (solubility fold change) (ratio); higher = more soluble protein in presence of GTP. In a few lines:
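Across three independent experiments, values are fold changes against the detergent-processed vehicle for each replicate, based on vsn-normalised intensities. The samples were Jurkat crude lysate treated with eight concentrations (0.1 to 10 mM) for 10 min at room temperature and then 3 min at 37 °C. Lysate was solubilised with 0.8% NP40 and benzonase, ultracentrifuged, and the supernatant analysed by TMT-labelled LC-MS/MS.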

As for EGLN1 (UniProt Q9GZT9), the NP40-soluble protein abundance (concentration: 0.1mM) stood at 0.993 ± 0.055; the NP40-soluble protein abundance (concentration: 0.5mM) is 0.958 ± 0.062; the NP40-soluble protein abundance (concentration: 1mM) came out at 0.959 ± 0.054; the NP40-soluble protein abundance (concentration: 2mM) worked out at 0.912 ± 0.11; the NP40-soluble protein abundance (concentration: 4mM) was found to be 0.934 ± 0.077; the NP40-soluble protein abundance (concentration: 6mM) turned out to be 0.933 ± 0.082. Moreover, the NP40-soluble protein abundance stood at 0.972 ± 0.029 (concentration: 8mM) and 0.988 ± 0.1 (concentration: 10mM).

For the target UniProt Q9H974 and related entries, the NP40-soluble protein abundance (concentration: 0.1mM) was determined as 1.01 ± 0.07; the NP40-soluble protein abundance (concentration: 0.5mM) was determined as 1 ± 0.05; the NP40-soluble protein abundance (concentration: 1mM) turned out to be 0.912 ± 0.012; the NP40-soluble protein abundance (concentration: 2mM) is 0.923 ± 0.025; the NP40-soluble protein abundance (concentration: 4mM) amounted to 0.923 ± 0.033; the NP40-soluble protein abundance (concentration: 6mM) was determined as 0.92 ± 0.031. For the same target, the NP40-soluble protein abundance is 0.871 ± 0.064 (concentration: 8mM) and 0.852 ± 0.11 (concentration: 10mM).

Regarding UBQLN4 (UniProt Q9NRR5), the NP40-soluble protein abundance is 0.926 ± 0.049 (concentration: 0.1mM); 1 ± 0.067 (concentration: 0.5mM); 1.02 ± 0.08 (concentration: 1mM); 0.958 ± 0.041 (concentration: 2mM); 0.999 ± 0.032 (concentration: 4mM); 0.933 ± 0.059 (concentration: 6mM). For the same target, the NP40-soluble protein abundance runs as follows: (concentration: 8mM) 0.9666 ± 0.0095; (concentration: 10mM) 0.997 ± 0.018.

With UniProt Q9H4L5 and related entries, the NP40-soluble protein abundance (concentration: 0.1mM) was 1.07 ± 0.021; the NP40-soluble protein abundance (concentration: 0.5mM) came to 1.1 ± 0.019; the NP40-soluble protein abundance (concentration: 1mM) was determined as 1.07 ± 0.042; the NP40-soluble protein abundance (concentration: 2mM) is 1.1 ± 0.039; the NP40-soluble protein abundance (concentration: 4mM) worked out at 1.09 ± 0.038; the NP40-soluble protein abundance (concentration: 6mM) was found to be 1.05 ± 0.044. The NP40-soluble protein abundance is, setting by setting: (concentration: 8mM) 1.11 ± 0.064; (concentration: 10mM) 1.07 ± 0.048.

For the target EIF2B3 (UniProt Q9NR50), the NP40-soluble protein abundance (concentration: 0.1mM) was found to be 1.04 ± 0.062; the NP40-soluble protein abundance (concentration: 0.5mM) was determined as 1.01 ± 0.078; the NP40-soluble protein abundance (concentration: 1mM) is 0.984 ± 0.062; the NP40-soluble protein abundance (concentration: 2mM) was 1.03 ± 0.1; the NP40-soluble protein abundance (concentration: 4mM) was 1.07 ± 0.079; the NP40-soluble protein abundance (concentration: 6mM) amounted to 1.03 ± 0.1. Besides, the NP40-soluble protein abundance is, setting by setting: (concentration: 8mM) 1.03 ± 0.06; (concentration: 10mM) 1.02 ± 0.081.

Take UniProt Q9NNW7 and related entries: the NP40-soluble protein abundance is, setting by setting: (concentration: 0.1mM) 0.979 ± 0.087; (concentration: 0.5mM) 0.989 ± 0.051; (concentration: 1mM) 1 ± 0.06; (concentration: 2mM) 1.01 ± 0.063; (concentration: 4mM) 0.946 ± 0.079; (concentration: 6mM) 0.94 ± 0.074. Also, the NP40-soluble protein abundance was found to be 0.945 ± 0.052 (concentration: 8mM) and 1.01 ± 0.057 (concentration: 10mM).

On to UniProt Q9H0W8, for which the NP40-soluble protein abundance by setting is: (concentration: 0.1mM) 0.962 ± 0.0098; (concentration: 0.5mM) 1.03 ± 0.07; (concentration: 1mM) 0.992 ± 0.073; (concentration: 2mM) 1.07 ± 0.058; (concentration: 4mM) 1.009 ± 0.0049; (concentration: 6mM) 1.01 ± 0.084. In addition, the NP40-soluble protein abundance reads like this: (concentration: 8mM) 0.986 ± 0.032; (concentration: 10mM) 0.963 ± 0.053.

With CACYBP (UniProt Q9HB71), the NP40-soluble protein abundance reads like this: (concentration: 0.1mM) 0.92 ± 0.077; (concentration: 0.5mM) 0.941 ± 0.055; (concentration: 1mM) 0.926 ± 0.088; (concentration: 2mM) 0.861 ± 0.095; (concentration: 4mM) 0.842 ± 0.11; (concentration: 6mM) 0.878 ± 0.095. Besides, the NP40-soluble protein abundance turned out to be 0.888 ± 0.08 (concentration: 8mM) and 0.855 ± 0.07 (concentration: 10mM).

Turning to UniProt Q9NSI2 and related entries, the NP40-soluble protein abundance by setting is: (concentration: 0.1mM) 0.959 ± 0.068; (concentration: 0.5mM) 0.852 ± 0.074; (concentration: 1mM) 0.965 ± 0.042; (concentration: 2mM) 0.949 ± 0.076; (concentration: 4mM) 0.893 ± 0.054; (concentration: 6mM) 0.876 ± 0.033. For the same target, the NP40-soluble protein abundance reads like this: (concentration: 8mM) 0.844 ± 0.1; (concentration: 10mM) 0.921 ± 0.063.

Turning to ACTR8 (UniProt Q9H981), the NP40-soluble protein abundance runs as follows: (concentration: 0.1mM) 1.12 ± 0.14; (concentration: 0.5mM) 1.13 ± 0.036; (concentration: 1mM) 1.12 ± 0.074; (concentration: 2mM) 1.13 ± 0.14; (concentration: 4mM) 1.17 ± 0.13; (concentration: 6mM) 1.15 ± 0.12. For the same target, the NP40-soluble protein abundance is 1.22 ± 0.2 (concentration: 8mM) and 1.18 ± 0.14 (concentration: 10mM).

With CUTC (UniProt Q9NTM9), the NP40-soluble protein abundance runs as follows: (concentration: 0.1mM) 1.04 ± 0.1; (concentration: 0.5mM) 1.05 ± 0.11; (concentration: 1mM) 0.904 ± 0.061; (concentration: 2mM) 0.944 ± 0.11; (concentration: 4mM) 0.932 ± 0.079; (concentration: 6mM) 0.913 ± 0.075. For the same target, the NP40-soluble protein abundance (concentration: 8mM) stood at 0.863 ± 0.026 and the NP40-soluble protein abundance (concentration: 10mM) worked out at 0.861 ± 0.066.

Regarding UniProt Q9H8Y8 and related entries, the NP40-soluble protein abundance is, setting by setting: (concentration: 0.1mM) 0.893 ± 0.088; (concentration: 0.5mM) 0.934 ± 0.09; (concentration: 1mM) 0.911 ± 0.095; (concentration: 2mM) 0.873 ± 0.087; (concentration: 4mM) 0.836 ± 0.091; (concentration: 6mM) 0.858 ± 0.059. For the same target, the NP40-soluble protein abundance reads like this: (concentration: 8mM) 0.884 ± 0.091; (concentration: 10mM) 0.892 ± 0.12.

For C17orf75 (UniProt Q9HAS0), the NP40-soluble protein abundance (concentration: 0.1mM) turned out to be 1.06 ± 0.095; the NP40-soluble protein abundance (concentration: 0.5mM) was found to be 1.01 ± 0.15; the NP40-soluble protein abundance (concentration: 1mM) was 1.02 ± 0.11; the NP40-soluble protein abundance (concentration: 2mM) worked out at 1.02 ± 0.14; the NP40-soluble protein abundance (concentration: 4mM) was found to be 1.06 ± 0.17; the NP40-soluble protein abundance (concentration: 6mM) amounted to 1.01 ± 0.18. In addition, the NP40-soluble protein abundance (concentration: 8mM) is 1.02 ± 0.12 and the NP40-soluble protein abundance (concentration: 10mM) amounted to 1.05 ± 0.11.

For UniProt Q9NTJ3 and related entries, the NP40-soluble protein abundance by setting is: (concentration: 0.1mM) 0.971 ± 0.03; (concentration: 0.5mM) 1.01 ± 0.018; (concentration: 1mM) 0.993 ± 0.024; (concentration: 2mM) 0.977 ± 0.036; (concentration: 4mM) 0.984 ± 0.045; (concentration: 6mM) 1.01 ± 0.038. The NP40-soluble protein abundance is, setting by setting: (concentration: 8mM) 1.02 ± 0.098; (concentration: 10mM) 0.986 ± 0.052.

In the case of PELI2 (UniProt Q9HAT8), the NP40-soluble protein abundance reads like this: (concentration: 0.1mM) 0.939 ± 0.06; (concentration: 0.5mM) 0.989 ± 0.046; (concentration: 1mM) 0.946 ± 0.078; (concentration: 2mM) 0.926 ± 0.073; (concentration: 4mM) 0.94 ± 0.027; (concentration: 6mM) 0.938 ± 0.036. The NP40-soluble protein abundance turned out to be 0.956 ± 0.043 (concentration: 8mM) and 0.905 ± 0.1 (concentration: 10mM).

Source of the values: the supplement of paper PMC6411743.
